In PubChem BioAssay AID1487 (National Center for Advancing Translational Sciences (NCATS), 2009):
About 25 (0.01%) of roughly 200,000 compounds were called active. Inconclusive results, whose numbers are uncertain, are shown with a selection of clear calls. Calls follow the shape of the dose curve; as a rule, active = well fitted inhibition curve with a large enough effect in the signal ratio, with a control signal flat (not every such curve was filed as active); inconclusive = small, poorly fitted or top-dose-only effect, or effect the other way, or a change in a side signal; inactive = flat fitted curve, though single readings scatter; the % refers to the signal ratio. Potencies of inconclusive entries are doubtful fits and often do not repeat.

Assay: qHTS Assay for Modulators of Lamin A Splicing
Conditions: HeLa LMNA splicing GFP/RFP minigene ratio, 48 h; ratio change, negative = inhibition: at 46.1 µM (top of the series) unless noted
Summary of the method: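 S3 HeLa cells stably expressing lamin A-EGFP splicing minigene plus DsRed2, 600 cells/well, 48 h compound exposure at 37C. Laser-scanning cytometry; analysed as GFP (500-530 nm)/RFP (575-640 nm) total intensity ratio; 0.5% DMSO vehicle.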
% is scaled to controls: 0 for no effect and ±100 for the full control effect; potency is read from the fitted curve at half-maximal effect.

SMILES	ratio change, negative = inhibition	Potency
O=C(CN1CCc2ccccc21)NC(c1ccccc1)c1ccccc1	inconclusive: -11.1%	
COc1ccc(OC)c(CN2CCC(CO)(CCOc3ccccc3)CC2)c1	inconclusive: 20.1% [at 46 µM]	
Oc1ccc(N2CCN(c3nnnn3-c3ccccc3)CC2)cc1		inconclusive: 15.8 µM [inhibitor, partial curve]
CC(C)(C)n1nnnc1C(c1ccccc1F)N(Cc1ccco1)CC1CCCO1 (configuration not stated)	inconclusive: 12.2%	
CCOC(=O)Cc1n[nH]c(=O)c2ccccc12	inconclusive: 7.57% [at 46 µM]	
Fc1cccc(CN2CCc3nc(Nc4ccc5c(c4)OCCO5)ncc3C2)c1F	inconclusive: -13.9% [at 46 µM]	
Cc1ccc(CSC2=NC(C)(C)Nc3ccccc32)c(C)c1		inconclusive: 35.5 µM [cytotoxic, single point]
Cc1cc(Sc2nc(N(C)C)nc(N(C)C)n2)nc(Cl)n1	inconclusive: -11.7% [at 46 µM]	
CCOc1ccccc1NC(=O)Cn1c(=O)oc2ccccc21	inactive: 1.5% [at 46 µM]	
Cn1cc(CN(CCO)Cc2cccs2)c(-c2ccccc2F)n1	inconclusive: -3.16% [at 46 µM]	
Cc1cc(C)nc(SCC(=O)n2c3c(c4ccccc42)CCCC3)n1	inconclusive: -0.428%	
CC1CC(C)CN(Cc2nc3c(c(=O)n(C)c(=O)n3C)n2CCN2CCOCC2)C1 (configuration not stated)	inactive: -10.3%	
O=C(NC(=O)N1CCN(c2ccc(F)cc2)CC1)c1ccccc1	inconclusive: 10.7%	
Cc1ccc(Cl)c(Nc2ccccc2C(=O)O)c1Cl	inconclusive: -31.7%	
Cc1ccc(C2c3sc(=O)[nH]c3SC3C(=O)NC(=O)C32)cc1 (configuration not stated)	inactive: 3.69%	
CC(c1ccccc1)C1CC(=O)N(Cc2ccccc2)C1=O (configuration not stated)	inconclusive: -1.22% [at 46 µM]	
COc1ccc(/C=c2\s/c(=C/C(=O)c3ccc(C)cc3)[nH]c2=O)cc1OC		inconclusive: 11.2 µM [falling, partial curve]
COc1ccc(CNC(=S)Nc2cc(OC)ccc2OC)cc1	inconclusive: 1.24%	
CCN(CC)CCCNC(=O)c1ccc2c(c1)sc1nc(-c3ccc(C)cc3)cn12	inconclusive: 3.03% [at 46 µM]	
CCCCOc1ccc(C(=O)Nc2cc(-c3cn4cccnc4n3)ccc2OC)cc1	inactive: -3.5% [at 46 µM]	
CCN(C)c1ccc(/C=N\n2nnnc2N)cc1	inconclusive: -33.2%	

SMILES	ratio change, negative = inhibition	Potency
O=C(NCCN1CCOCC1)c1cnn2c(-c3ccccc3)cc(-c3ccccc3)nc12	inconclusive: -20.5%	
Cc1cnc2ncc3sccc3c2c1	inconclusive: 4.79%	
CCOc1ccc(NC(=O)c2sc(-n3nc(C)c(Cc4ccc(Cl)cc4)c3C)nc2C)cc1	inactive: 7.65% [at 46 µM]	
CCOC(=O)c1c(C)c(C(=O)N2CCCCCC2)c(C)n1CC	inactive: -14.2%	
COc1ccc(OC)c(-c2cc(C(=O)NCc3cccs3)no2)c1	inactive: -5.93%	
CCc1cccc(NC(=O)c2ccc3c(c2)N(Cc2cccc(Cl)c2)C(=O)c2ccccc2S3=O)c1 (configuration not stated)	inconclusive: 0.754% [at 46 µM]	
CCCOc1ccc([C@@H]2C3CN(C(=O)OCC)CC=C3C(C#N)=C(N)C2(C#N)C#N)cc1OC (some centres not stated)	inactive: 0.391%	
COC(=O)c1c(C)nc2c(c(SC)nn2-c2ccccc2)c1N	inconclusive: 14.9%	
S=C(Nc1ccc(Cl)cc1Cl)Nn1cnnc1	inactive: -11%	
CCCCSc1[nH]c(=O)c(C(=O)OCC)cc1C#N		inconclusive: 35.5 µM [inhibitor, single point]
Cc1cc(-c2csc(N)n2)c(C)n1CCC(C)C	inactive: 12.2%	
CCCNC(=O)COC(=O)c1ccccc1OCC(=O)Nc1ccc(Br)cc1	inconclusive: 8.78%	
NC(=O)C1CCN(Cc2nc3c(Br)cc(Br)cc3c(=O)[nH]2)CC1	inconclusive: 19.9% [at 46 µM]	
COc1ccc(NC(=O)C(NC(=O)CC2NC(=O)NC2=O)c2ccccc2)cc1 (configuration not stated)	inactive: -5.96%	
COc1ccc(N2CCN(CC(=O)N3N=CCC3c3ccccc3)CC2)cc1 (configuration not stated)	inconclusive: 0.881%	
CC(CNC(=O)COc1ccccc1)OC(=O)Nc1ccc(Cl)c(Cl)c1 (configuration not stated)	inconclusive: -40.1%	
CCOc1cccc(C2C(C(=O)c3ccc(C)o3)=C(O)C(=O)N2c2nccs2)c1 (configuration not stated)	inactive: -0.65%	
Cc1cc(C(=O)NCc2nc(-c3ccccc3)no2)ccc1[N+](=O)[O-]	inconclusive: -13.2% [at 46 µM]	
CCCc1cc(=O)[nH]c(SCc2nc(-c3ccc(OCC)cc3)no2)n1	inconclusive: -10.2% [at 46 µM]	
O=C(c1ccc(CSc2nc3ccncc3[nH]2)cc1)N1CCN(c2cccc(Cl)c2)CC1	inconclusive: -55.8%	
O=C(NCCN1CCOCC1)c1ccc2c(c1)N(Cc1c(F)cccc1Cl)C(=O)c1ccccc1S2	inconclusive: -0.0025% [at 46 µM]	

SMILES	ratio change, negative = inhibition	Potency
COc1cccc(NC(=O)C(C)n2c(=O)cc(C(F)(F)F)c3c(C)nn(C)c32)c1 (configuration not stated)	inactive: 24.7% [at 46 µM]	
CN1CCC(=NNC(=O)CSCc2ccccc2)CC1	inactive: 5.44%	
Cc1ccc(-c2nnc(SCc3ccccc3)o2)cc1	inconclusive: 11.5% [at 46 µM]	
S=C(Nc1ccccc1)Nc1nc2ccccc2n1CCOc1ccccc1		inconclusive: 35.5 µM [cytotoxic, single point]
Cc1cccc(-n2c(C)cc(/C=N\NC(=O)c3cccs3)c2C)c1	inconclusive: -36.6%	
CCn1c(/C=N/NC(=O)c2ccc(OC)cc2)nc2ccccc21		inconclusive: 22.4 µM [fluorescent, single point]
c1ccc(CNc2cc(-c3ccoc3)ncn2)cc1	inconclusive: -24.7%	
O=C(COc1nsnc1N1CCOCC1)N/N=C/c1ccccc1O	inconclusive: -44.7%	
O=C(CCn1cnc2onc(-c3ccc(F)cc3)c2c1=O)Nc1cccc(C(F)(F)F)c1		inconclusive: 35.5 µM [inhibitor, single point]
O=C(CSc1n[nH]c(-c2ccccc2)n1)N1CCN(c2ccc(F)cc2)CC1	inactive: -12.9% [at 46 µM]	
CCn1nc(C(=O)O)c(=O)c2cc3c(cc21)OCO3	inconclusive: -10.4%	
O=C(NCCn1cc(SCc2ccccc2)c2ccccc21)c1c(F)cccc1F	inconclusive: -22.6%	
Cc1cc2cc(CN3C(=O)c4ccccc4C3=O)ccc2n1C	inconclusive: 2.61%	
O=C(CSc1nc2[nH]ncc2c(=O)n1-c1ccccc1)c1ccc2c(c1)OCCO2		inconclusive: 35.5 µM [falling, single point]
COc1ccc(S(=O)(=O)Nc2cccc(-c3ccc(N4CCCC4)nn3)c2)cc1F	inconclusive: -6.87% [at 46 µM]	
Cc1oc2c(c1C(=O)NCc1ccccc1F)C1=NCCN1C=N2	inconclusive: 0.816% [at 46 µM]	
O=C(NCC(c1ccc2c(c1)OCO2)N1CCN(c2ccccc2)CC1)C(=O)Nc1ccccc1F (configuration not stated)		inconclusive: 4.47 µM [inhibitor, full curve]
O=C(/C=C/c1cccc2ccccc12)c1ccncc1	inconclusive: 12.9%	
Cc1ccc(NC(=O)CSCc2cc(=O)c3ccccc3[nH]2)c(C)c1	inconclusive: 3.85% [at 46 µM]	
COc1ccc(Oc2ncc3nc(C)c(=O)n(Cc4cccc(OC)c4)c3n2)cc1	inconclusive: -3.89%	
COc1cccc(-c2nc(CS(=O)CC(=O)NCc3ccccc3Cl)c(C)o2)c1 (configuration not stated)	inactive: -3.68%	

Nothing new here: entries from further up.
SMILES	ratio change, negative = inhibition	Potency
c1ccc(CNc2cc(-c3ccoc3)ncn2)cc1	inconclusive: -24.7%	
O=C(COc1nsnc1N1CCOCC1)N/N=C/c1ccccc1O	inconclusive: -44.7%	
O=C(CCn1cnc2onc(-c3ccc(F)cc3)c2c1=O)Nc1cccc(C(F)(F)F)c1		inconclusive: 35.5 µM [inhibitor, single point]

More compounds follow:

SMILES	ratio change, negative = inhibition	Potency
Cn1c(=O)c2c(SCc3cccnc3)nc(CC(C)(C)C)nc2n(C)c1=O	inconclusive: 29%	
Cc1oncc1C(=S)Nc1ccccc1	inactive: -0.0837%	
COc1ccc(C2C(C(=O)/C=C/c3ccco3)=C(O)C(=O)N2CCN2CCOCC2)cc1 (configuration not stated)	inconclusive: 8.83% [at 46 µM]	
CCOc1ccc(C(c2c(O)cc(C)n(Cc3ccco3)c2=O)N2CCN(C)CC2)cc1 (configuration not stated)	inconclusive: -6.93% [at 46 µM]	
Cc1ccc(SCC(=O)c2c(C)nc3cc(C)ccn23)cc1	inconclusive: -39% [at 46 µM]	
CC(=O)Nc1ccc(NC(=O)Cc2sc(C)nc2-c2ccc(C)cc2)cc1	inactive: -6.03%	
Cc1ccnc(Sc2ccc([N+](=O)[O-])cc2[N+](=O)[O-])n1	inconclusive: 199%	
COCCN(C(=O)CNC(=O)c1cccs1)C(C(=O)NC1CCCC1)c1cccs1 (configuration not stated)	inactive: 11.1%	
COc1ccc(-c2nnc3sc(C(C)N4C(=O)c5ccccc5C4=O)nn23)cc1 (configuration not stated)	inactive: -7.52%	
Cc1cccc(CNC(=O)C2CCN(c3nn4cc(-c5ccc(F)cc5)nc4s3)CC2)c1	inactive: 13.1% [at 46 µM]	
N#CC1=C(S)N(c2ccccc2)C(c2ccc(-c3cccc(Cl)c3)o2)NC1=O (configuration not stated)	inactive: -0.479%	
NCCCC[C@@H]1NC(=O)c2cc([N+](=O)[O-])cc(I)c2SC[C@@H](C(=O)NCC(N)=O)NC(=O)CNC1=O	inconclusive: -5.03%	
Cc1ccc(N(Cc2cccs2)C(=O)c2ccc(OC(C)C)cc2)cc1	inconclusive: -20.6% [at 46 µM]	
CCOC(=O)C1(CCc2ccccc2)CCN(C(=O)C(C)n2cncn2)CC1 (configuration not stated)	inconclusive: 43.4% [at 46 µM]	
Cn1c(=O)oc2cc(S(=O)(=O)N3CCCc4ccccc43)ccc21	inconclusive: -29.1%	
Cc1ccc(C(=O)NCCc2csc(-c3cccc(F)c3)n2)cc1C	inconclusive: -9.86% [at 46 µM]	
Cc1ccc(C(c2sc3nc(-c4ccco4)nn3c2O)N2CCN(c3ccc(F)cc3)CC2)cc1 (configuration not stated)	inconclusive: -6.78% [at 46 µM]	
O=S(=O)(Cc1cc(NCc2ccccc2)nc(-c2ccccn2)n1)c1ccccc1	inconclusive: -20.7% [at 46 µM]	
Cc1ccc(NC(=O)c2cc(NC(=O)C3CC=CCC3C(=O)O)ccc2N2CCOCC2)cc1Cl (configuration not stated)	inactive: 2.53%	
